Source: publication PMC7819943, “Rice protein-binding microarrays: a tool to detect cis-acting elements near promoter regions in rice”
Some of the results follow.

Chains of the proteins cited; added tags and fusions are not shown.
UniProt Q0JBA9, entry or part of it: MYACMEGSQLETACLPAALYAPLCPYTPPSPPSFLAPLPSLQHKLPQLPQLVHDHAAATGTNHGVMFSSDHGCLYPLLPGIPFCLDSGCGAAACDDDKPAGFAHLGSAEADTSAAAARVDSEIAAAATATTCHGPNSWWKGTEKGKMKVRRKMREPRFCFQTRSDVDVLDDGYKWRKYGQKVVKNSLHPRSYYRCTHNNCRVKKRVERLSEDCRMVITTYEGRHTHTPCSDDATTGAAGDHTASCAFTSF

Target: OsWRKY34 (Oryza sativa, UniProt Q0JBA9 1-250)
Test: protein-binding microarray (RPBM); PBS, 2% BSA, 51.3 ng/ul salmon testes DNA, 50 uM zinc acetate, 200 nM TF, 25 C, 1 h; high values mean tight binding
Conditions: protein: recombinant; tags: N-terminal polyhistidine and DsRed monomer fusion (pET32a); label: CyDye5-dUTP incorporated in the synthesized complementary strand; 3' TTTTT single-stranded linker to array surface; dsDNA, one strand shown
Outline: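 For the binding signal, per-feature fluorescence intensity was read in arbitrary units on an Axon 4000B scanner. Before scanning, a 2% BSA-blocked custom Agilent array made double-stranded with Cy5-dUTP was washed after 1 h at 25 °C with 200 nM protein and 50 µM zinc acetate. The proteins were Ni–NTA-purified transcription factors with N-terminal polyhistidine and DsRed fusions, expressed in E. coli BL21-CodonPlus.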

Sequence	binding signal
TATTTTACGCACTTGTTCCATTTCCCCTGTTTGTTTGCCGCGGAGTCACCTAGTGCAG	15900 fluorescence intensity (a.u.)
CTCCTCCATGCAAGCTCTCTTGTGCTTCTTTTTTTAATTTCGGAGTCACCTAGTGCAG	11100 fluorescence intensity (a.u.)
TGGGGCCACGAGCGTGCCACGCCATCATCAAACACGTTTCCGGAGTCACCTAGTGCAG	8500 fluorescence intensity (a.u.)
TGCCTGTGTGTGTCACTCTTCTCATGATCTCATCACACCACGGAGTCACCTAGTGCAG	12000 fluorescence intensity (a.u.)
AAGGCGCGCCGTCGCTCGCTTACATCCTCCACGTGTGCTCCGGAGTCACCTAGTGCAG	9020 fluorescence intensity (a.u.)
AGAAATTATCACTTGTTTGTCTTTTGTTAGTCTTTTTTTTCGGAGTCACCTAGTGCAG	9060 fluorescence intensity (a.u.)
AACTCCAGGGCCCACATGTCATCATACGAAAAAACGCGTACGGAGTCACCTAGTGCAG	10900 fluorescence intensity (a.u.)
CATTTCACTCCTTTACATCACATTTCTAGCCACCCTCTCACGGAGTCACCTAGTGCAG	10800 fluorescence intensity (a.u.)
TAGCTCGCTTGTCCTAATCCTCCTCTCTTTCTGCAACAAGCGGAGTCACCTAGTGCAG	10700 fluorescence intensity (a.u.)
GGATTTCCTACCTCCCGCTTGGCTTCTCCTCGAATCCGATCGGAGTCACCTAGTGCAG	9530 fluorescence intensity (a.u.)
TTCTTCCCGGCGGCGTGGTCGTCGCTGTTCCCCACCCGCCCGGAGTCACCTAGTGCAG	9000 fluorescence intensity (a.u.)
CCTGTGCCCATATCCTGTTGTTTCCAGTAGACATCCTTGGCGGAGTCACCTAGTGCAG	10200 fluorescence intensity (a.u.)
TGTTTTACATCTATCTTCTTGCATTTTATTTTCCTATATGCGGAGTCACCTAGTGCAG	9920 fluorescence intensity (a.u.)
AAATCAAATAAAGCTTGTATATCTCTGTTTATGTAACATACGGAGTCACCTAGTGCAG	8070 fluorescence intensity (a.u.)
CGCCACCGGCACCTCGCCGCCCGCCCATGTCCACCGCCCACGGAGTCACCTAGTGCAG	8540 fluorescence intensity (a.u.)
TATCCATAGTAGCCATGGTCACATCAGGAGGAGGGGAGGTCGGAGTCACCTAGTGCAG	11900 fluorescence intensity (a.u.)
GTACTCTCGCTGTACGTAGCGTTCGTGTTGATAATAGATCCGGAGTCACCTAGTGCAG	8200 fluorescence intensity (a.u.)
TCACTGCATAAACTACACCATCCGTCTCCAATGACTCCCGCGGAGTCACCTAGTGCAG	9510 fluorescence intensity (a.u.)
CAACACACAACCCAACTCTCATCTCATCACAACCGCGCGACGGAGTCACCTAGTGCAG	10300 fluorescence intensity (a.u.)
TCCGCTGTTCTTGGTCAATCTTCTGTCAAAGTGCACAATACGGAGTCACCTAGTGCAG	8240 fluorescence intensity (a.u.)
TCTCTCTGAGAACCTATAGAATATTTGCAATTTTTTTTCTCGGAGTCACCTAGTGCAG	8370 fluorescence intensity (a.u.)

Pulled one by one from the entries so far:
Sequence	binding signal
CCTGTGCCCATATCCTGTTGTTTCCAGTAGACATCCTTGGCGGAGTCACCTAGTGCAG	10200 fluorescence intensity (a.u.)
TCCGCTGTTCTTGGTCAATCTTCTGTCAAAGTGCACAATACGGAGTCACCTAGTGCAG	8240 fluorescence intensity (a.u.)
AACTCCAGGGCCCACATGTCATCATACGAAAAAACGCGTACGGAGTCACCTAGTGCAG	10900 fluorescence intensity (a.u.)
TCTCTCTGAGAACCTATAGAATATTTGCAATTTTTTTTCTCGGAGTCACCTAGTGCAG	8370 fluorescence intensity (a.u.)
TATTTTACGCACTTGTTCCATTTCCCCTGTTTGTTTGCCGCGGAGTCACCTAGTGCAG	15900 fluorescence intensity (a.u.)

Next part

Sequence	binding signal
CTCTCGTCTCGGAGAAGGCAACGTCGCCCTCGCCGCCGCGCGGAGTCACCTAGTGCAG	8880 fluorescence intensity (a.u.)
TTTCTTTTCCTAAACATGATACCTCGGAATCCATACTGTCCGGAGTCACCTAGTGCAG	8260 fluorescence intensity (a.u.)
ATCTTCCCCACTTCTCCATCCTGACATGGTATACTTCTTGCGGAGTCACCTAGTGCAG	8310 fluorescence intensity (a.u.)
ACACATCCATGAAGATCCTCTTGTCACTTAGCCAACCTAACGGAGTCACCTAGTGCAG	9040 fluorescence intensity (a.u.)
CTTTGTATTTCTGGATGGAGATGTGCCGATGTATTTGACTCGGAGTCACCTAGTGCAG	9600 fluorescence intensity (a.u.)
CCATCTCTGCCAGTTAGTTTCTTAATGATTTGGATTTTTGCGGAGTCACCTAGTGCAG	8590 fluorescence intensity (a.u.)
ACGGATATAGTGGTGGTGGTGGAGGAATGATGGTGAGCGGCGGAGTCACCTAGTGCAG	9370 fluorescence intensity (a.u.)
TGTGACACGCCAAAACTTTACACCCCTGGATCTAAACACACGGAGTCACCTAGTGCAG	8780 fluorescence intensity (a.u.)
TCCATTACTACTCTCCAGTGTTCTTTTTTCCGTACCCATGCGGAGTCACCTAGTGCAG	9250 fluorescence intensity (a.u.)
GCTGTTTTTGTTCCTTTTTTTTTAACACGGGTTCATCAAGCGGAGTCACCTAGTGCAG	8650 fluorescence intensity (a.u.)
GACATACACCATCTCACAGTTGATGAAGCTCACTTCCATCCGGAGTCACCTAGTGCAG	10100 fluorescence intensity (a.u.)
GTTTGTCAAAAAGTCAACGGCGTCATATATTATACGGAGGCGGAGTCACCTAGTGCAG	18800 fluorescence intensity (a.u.)
TAATCCTTTGCTCCCTGATTGCCTCTCTGCCTCGCTGTACCGGAGTCACCTAGTGCAG	8900 fluorescence intensity (a.u.)
GAATAAAAGTTCAACATACACGTGTTAATTTCTGATACTCCGGAGTCACCTAGTGCAG	8320 fluorescence intensity (a.u.)
GCCTCGTCCCGGCGACCTTCTTCCCACCCGCCGGCCGGCTCGGAGTCACCTAGTGCAG	9360 fluorescence intensity (a.u.)
ACACGCCGACGCCGCGCGCGCTGCACTTTTTTACGCTTTCCGGAGTCACCTAGTGCAG	9440 fluorescence intensity (a.u.)
CCCTTCGTCTTCCCCGCGCCGCCATCTCATCTTCCCGTTCCGGAGTCACCTAGTGCAG	8240 fluorescence intensity (a.u.)
CAGTAAAACCATAACTCCTCTGCCCTTGCTTTTCTACCATCGGAGTCACCTAGTGCAG	8540 fluorescence intensity (a.u.)
GTTTTCCCGCGCTTTGGCGCTTCCCGCCCTTTTCCCCTATCGGAGTCACCTAGTGCAG	9440 fluorescence intensity (a.u.)
GCCGCCGCCGCCGCTGCCGCCTTGGCTCCTTCGCTCGTCCCGGAGTCACCTAGTGCAG	11000 fluorescence intensity (a.u.)
GACCGTCCGCTCGCATAACTCCGGTCTGACCGGCTCCACTCGGAGTCACCTAGTGCAG	8730 fluorescence intensity (a.u.)

Sequence	binding signal
ATCTTAGCCTCGTACCTCCTTTTGTGTGTTTAGTTTCTTACGGAGTCACCTAGTGCAG	9650 fluorescence intensity (a.u.)
GTTTTTAGCTTCCTGTTCCACCCATTAGTAAAAACTGCTGCGGAGTCACCTAGTGCAG	8540 fluorescence intensity (a.u.)
TTGGTTGAGTCGTTGTTTGCCTACTCCACAGCATCCATCACGGAGTCACCTAGTGCAG	8480 fluorescence intensity (a.u.)
TTAAAATTTTCCGTTTTTCTTATTCCTACGTCTTCTCAAACGGAGTCACCTAGTGCAG	8410 fluorescence intensity (a.u.)
CGTTGACCCGAGCGAGCTCCTCTACTCGCCGCCAGCCGCTCGGAGTCACCTAGTGCAG	9500 fluorescence intensity (a.u.)
GCCGGAACTACTCCATCAGGTTGTCAGCCGATCGGCTGTTCGGAGTCACCTAGTGCAG	8830 fluorescence intensity (a.u.)
CTTTCTTTTGGAGGCCCTCCACAATTATTTTATTTTGGTTCGGAGTCACCTAGTGCAG	8260 fluorescence intensity (a.u.)
GGCGACTCAAGGTGGGTTCTGCGTGGGTAGGGTTTCAATCCGGAGTCACCTAGTGCAG	8630 fluorescence intensity (a.u.)
ATTGTGTTTCATCGTTTAGATTGTTGATGTTCAAAAGTTGCGGAGTCACCTAGTGCAG	8260 fluorescence intensity (a.u.)
CGTGGGGTGGGATCGGAAGCAGTGGAGTTGTTTTTATTATCGGAGTCACCTAGTGCAG	16500 fluorescence intensity (a.u.)
ACGACGTTGAGTCGTTGACCTCGCTGCTGAGTGTTGACCCCGGAGTCACCTAGTGCAG	10200 fluorescence intensity (a.u.)
CATCACTCACCTGCATGCGTCCACTCATCCAGCAACTGTTCGGAGTCACCTAGTGCAG	9720 fluorescence intensity (a.u.)
GGCTATAGCCTTGCCTTTTCTTTTCTTTTCTTTTCTTTTTCGGAGTCACCTAGTGCAG	9750 fluorescence intensity (a.u.)
CTCCACCACGCACACACACTCCACACACGCACCCCTACACCGGAGTCACCTAGTGCAG	10800 fluorescence intensity (a.u.)
CTACCTAGTCGTAGCTAGCCACCACCTACTTCTGCTCTTCCGGAGTCACCTAGTGCAG	9840 fluorescence intensity (a.u.)
ATAAAATGCTCGCATTGTCTGTCGCCTCATCGCTTGTTCTCGGAGTCACCTAGTGCAG	9120 fluorescence intensity (a.u.)
TCGATCTTCGCCTCCGACTTCGCTTTGATCCAATCTTCTTCGGAGTCACCTAGTGCAG	9370 fluorescence intensity (a.u.)
GATTTGGCTATGGTCGTTGGATTTGAGGTTAGGGTTAAAACGGAGTCACCTAGTGCAG	8850 fluorescence intensity (a.u.)
CAACCCCGGGAAGACTACTCATCATTCGTTAGGTCGTAGTCGGAGTCACCTAGTGCAG	8090 fluorescence intensity (a.u.)
CACCGTCGCAACTATATTTGTTATTTTTGTTACAACTTATCGGAGTCACCTAGTGCAG	11800 fluorescence intensity (a.u.)
CGTGCCGTCACATTAAAATGCTCGTCATTGTTTGGTTTTGCGGAGTCACCTAGTGCAG	8320 fluorescence intensity (a.u.)

Sequence	binding signal
TGGCTTCCACTTAGGTTAACATGGTATCAGCACACAGTTACGGAGTCACCTAGTGCAG	9080 fluorescence intensity (a.u.)
ATCTTTGCCAAAATTTTTCTACTAGTATAATACTATCTCCCGGAGTCACCTAGTGCAG	8420 fluorescence intensity (a.u.)
TGTTGAAATTGTTTTTTGTTGCTCCTTAATGTTGACTTGTCGGAGTCACCTAGTGCAG	10900 fluorescence intensity (a.u.)
TATTAATTTTGGATTGGAGTGGGTTGGCCTATGAAGAATTCGGAGTCACCTAGTGCAG	11200 fluorescence intensity (a.u.)
ACACACGCCGCGGCTCTCGTCGGCTTGAGCCGAGCCGATACGGAGTCACCTAGTGCAG	8120 fluorescence intensity (a.u.)
GTCGACCTTATCTTCAACGCGCCGCATCCAGCTCTCCGTCCGGAGTCACCTAGTGCAG	8700 fluorescence intensity (a.u.)
TACTGATTTTTCCTTTTTACCGCTGATGATAGTATATACACGGAGTCACCTAGTGCAG	8780 fluorescence intensity (a.u.)
CTCTTACGTACTTTTTCCGTTTTATATTATAAGTTGTTTTCGGAGTCACCTAGTGCAG	8980 fluorescence intensity (a.u.)
TCCCCATCCGCCGGCCACCGCAGCTCCGCGCCTCCGCTTCCGGAGTCACCTAGTGCAG	8100 fluorescence intensity (a.u.)
GCTCTCATTCCCTTGTCTCCAACTCTCCAGTCTCCACCCACGGAGTCACCTAGTGCAG	9470 fluorescence intensity (a.u.)
GTTGTACACATAGGGATACTCTTTGTCATATGCCCATGCGCGGAGTCACCTAGTGCAG	9160 fluorescence intensity (a.u.)
TAAATCCACGACCCTTCAGCTATCTATCTCAGCTCCAATCCGGAGTCACCTAGTGCAG	8170 fluorescence intensity (a.u.)
GTGTGTGAATGACAAACGGGTCCCATGTATATGTTTTTAACGGAGTCACCTAGTGCAG	8860 fluorescence intensity (a.u.)
AAACCTCTTGACCCACACGATTCTTTCTATATATACCATACGGAGTCACCTAGTGCAG	9280 fluorescence intensity (a.u.)
TCTGATTTTACGGTTGGGGAACGATTTTGTAACTGGATGACGGAGTCACCTAGTGCAG	8300 fluorescence intensity (a.u.)
TTGTTTCGAGCCAGGGTTTCGTTATGGTCTTGTATTTGCCCGGAGTCACCTAGTGCAG	8160 fluorescence intensity (a.u.)
GCTATTTATCTCATATGATGTCTTGGATGTTGTGTAGAAACGGAGTCACCTAGTGCAG	9490 fluorescence intensity (a.u.)
GGCCACCACCTCGATGCTGACTCCTCTGTTCCGTCAACACCGGAGTCACCTAGTGCAG	9780 fluorescence intensity (a.u.)
TACAGAGCTGGACGTTGCCATTACTATCTCATTGCCTTGACGGAGTCACCTAGTGCAG	9370 fluorescence intensity (a.u.)
TGTCACCGGCTTCATGTCCTCGATCGAGCCATCATCTCTTCGGAGTCACCTAGTGCAG	11000 fluorescence intensity (a.u.)
CAGCTTACTGTTTTTCCTCATCGCAACCATTATTAAGACTCGGAGTCACCTAGTGCAG	8540 fluorescence intensity (a.u.)
